Drawing on the supplement of paper PMC10735217, this text covers TEAD-luciferase reporter activity for 27 molecules.

For the experiment, the system named is HEK293A TEAD-LUC reporter. As to the kind of experiment: TEAD-luciferase reporter activity (YAP activation), robust Z score vs plate; higher = stronger YAP/TEAD activation. The settings on record: 24 h.

Structures can show the parent of a compound that is named as a salt. Some of the results follow. Single values are uncertain here, since repeats match poorly.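 In a drug-repurposing library screen, luminescence reads luciferase driven by eight TEAD-binding elements, stably integrated into human kidney-derived cells. Compounds scoring over five robust Z scores above the plate mean are called hits.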

For `Nc1ccn([C@H]2C[C@H](O)[C@@H](CO)O2)c(=O)n1` [Torcitabine], the TEAD-luciferase reporter activity runs as follows: (compound concentration: 200 nM) inactive: -1.81; (compound concentration: 2 uM) inactive: 0.203; (compound concentration: 10 uM) inactive: 0.00528.

With `CN(c1ncccc1CNc1nc(Nc2ccc3c(c2)CC(=O)N3)ncc1C(F)(F)F)S(C)(=O)=O`, the TEAD-luciferase reporter activity is inactive: -1.8 (compound concentration: 200 nM) and inactive: -1.35 (compound concentration: 10 uM).

For the molecule `C[C@@]12CCc3occc3[C@H]1CC[C@@]13C[C@@H](CC[C@H]12)[C@@](O)(CO)C3` [Cafestol], for the setting “compound concentration: 2 uM”, the TEAD-luciferase reporter activity is inactive: -0.978.

As for `C[C@@]12CCc3occc3[C@H]1CC[C@@]13C[C@@H](CC[C@H]12)[C@@](O)(CO)C3`, the TEAD-luciferase reporter activity runs as follows: (compound concentration: 200 nM) inactive: 1.07; (compound concentration: 10 uM) inactive: 0.768.

Consider `C=C[C@]1(C)C[C@@H](OC(=O)CSC23CCN(CC2)CC3)C2(C)C3C(=O)CC[C@]3(CC[C@H]2C)[C@@H](C)[C@@H]1O` (stereo partly drawn), for which the TEAD-luciferase reporter activity is inactive: -0.881 (compound concentration: 200 nM), inactive: -1.01 (compound concentration: 2 uM) and inactive: 0.837 (compound concentration: 10 uM).

In the case of `NCCCC[C@@H]1NC(=O)[C@@H](Cc2c[nH]c3ccccc23)NC(=O)[C@H](c2ccccc2)NC(=O)[C@@H]2C[C@@H](OC(=O)NCCN)CN2C(=O)[C@H](Cc2ccccc2)NC(=O)[C@H](Cc2ccc(OCc3ccccc3)cc2)NC1=O` [Pasireotide diaspartate], the TEAD-luciferase reporter activity is inactive: -0.841 (compound concentration: 200 nM), inactive: 0.314 (compound concentration: 2 uM) and inactive: -0.94 (compound concentration: 10 uM).

With `Nc1nc(N)c2ncn(COCCO)c2n1`, the TEAD-luciferase reporter activity is, setting by setting: (compound concentration: 200 nM) inactive: -0.883; (compound concentration: 2 uM) inactive: -1.28; (compound concentration: 10 uM) inactive: -2.15.

`OC[C@H]1O[C@@H](n2cnc3c(NCc4ccco4)ncnc32)[C@H](O)[C@@H]1O` [Kinetin riboside]: the TEAD-luciferase reporter activity runs as follows: (compound concentration: 200 nM) inactive: -1.09; (compound concentration: 2 uM) inactive: -1.17; (compound concentration: 10 uM) inactive: -0.318.

With `Cc1ccc(N2c3cccc(C(=O)Nc4ccc(OCC(F)(F)F)nc4)c3OC[C@@H]2CO)nc1`, the TEAD-luciferase reporter activity by setting is: (compound concentration: 200 nM) inactive: -1.67; (compound concentration: 2 uM) inactive: -0.585; (compound concentration: 10 uM) inactive: -1.74.

Regarding `COc1ccccc1N1CCN(CCCCNC(=O)c2ccc3ccccc3c2)CC1`, the TEAD-luciferase reporter activity (compound concentration: 200 nM) was inactive: -1.1, the TEAD-luciferase reporter activity (compound concentration: 2 uM) was inactive: 0.91 and the TEAD-luciferase reporter activity (compound concentration: 10 uM) is inactive: -0.447.

As to `COc1ccc2c(c1)c(-c1ccccc1)nc(=O)n2CC1CC1` [Ciproquazone], the TEAD-luciferase reporter activity is, setting by setting: (compound concentration: 200 nM) inactive: -0.959; (compound concentration: 2 uM) inactive: 0.343; (compound concentration: 10 uM) inactive: -1.48.

Turning to `Clc1ccc(C(c2ccccc2)N2CCN(C/C=C/c3ccccc3)CC2)cc1` (stereo not drawn), the TEAD-luciferase reporter activity (compound concentration: 200 nM) was inactive: -0.981, the TEAD-luciferase reporter activity (compound concentration: 2 uM) was inactive: -1.67 and the TEAD-luciferase reporter activity (compound concentration: 10 uM) was inactive: 0.174.

As to `Nc1ncc2ncn(COCCO)c2n1` [Desciclovir], the TEAD-luciferase reporter activity (compound concentration: 200 nM) was inactive: 1.93, the TEAD-luciferase reporter activity (compound concentration: 2 uM) is inactive: 0.109 and the TEAD-luciferase reporter activity (compound concentration: 10 uM) was inactive: 1.85.

With `CCn1cc(C(=O)O)c(=O)c2ccc(Cl)cc21`, the TEAD-luciferase reporter activity is inactive: 1.22 (compound concentration: 200 nM), inactive: -1.81 (compound concentration: 2 uM) and inactive: -0.577 (compound concentration: 10 uM).

As for `O=C1c2cccc3cccc(c23)C(=O)N1CCNCCN1C(=O)c2cccc3cccc(c23)C1=O`, the TEAD-luciferase reporter activity was inactive: -0.911 (compound concentration: 200 nM), inactive: -1.17 (compound concentration: 2 uM) and inactive: 0.658 (compound concentration: 10 uM).

Turning to `Cn1c(=O)c2c(ncn2CC2OCCO2)n(C)c1=O` [doxofylline], the TEAD-luciferase reporter activity reads like this: (compound concentration: 200 nM) inactive: -1.31; (compound concentration: 2 uM) inactive: -0.474; (compound concentration: 10 uM) inactive: 0.949.

Turning to `CN(C)CCC1(C)OCCC2=C1Cc1ccccc12` (stereo not drawn), the TEAD-luciferase reporter activity reads like this: (compound concentration: 200 nM) inactive: 0.303; (compound concentration: 2 uM) inactive: 2.53; (compound concentration: 10 uM) inactive: 2.78.

In the case of `Cc1ccc(-n2c(-c3cnc(N4CCOCC4)nc3)nc3ccncc32)cc1`, the TEAD-luciferase reporter activity (compound concentration: 200 nM) was inactive: -1.85, the TEAD-luciferase reporter activity (compound concentration: 2 uM) is inactive: -0.388 and the TEAD-luciferase reporter activity (compound concentration: 10 uM) was inactive: -1.55.

As for `O=C(O)COCCN1CCN(C(c2ccccc2)c2ccc(Cl)cc2)CC1` (stereo not drawn) [cetirizine dihydrochloride], where the note is “compound concentration: 2 uM”, the TEAD-luciferase reporter activity was inactive: 0.0694.

With `O=C(O)COCCN1CCN(C(c2ccccc2)c2ccc(Cl)cc2)CC1` (stereo not drawn), the TEAD-luciferase reporter activity runs as follows: (compound concentration: 200 nM) inactive: 1.24; (compound concentration: 10 uM) inactive: -2.12.

For the molecule `CCN1CCCCC12Cc1ccccc1CN(C(=O)C1CCN(C)CC1)C2` (stereo not drawn), the TEAD-luciferase reporter activity by setting is: (compound concentration: 200 nM) inactive: 4.25; (compound concentration: 10 uM) inactive: 4.64.

Take `CC(=O)OCC(=O)C1(O)C(C)CC2C3CCC4=CC(=O)C=CC4(C)C3(F)C(O)CC21C` (stereo not drawn) [dexamethasone acetate]: the TEAD-luciferase reporter activity (compound concentration: 200 nM) is inactive: -0.219, the TEAD-luciferase reporter activity (compound concentration: 2 uM) is inactive: -0.891 and the TEAD-luciferase reporter activity (compound concentration: 10 uM) was inactive: 1.05.

In the case of `CCNC(=O)[C@@H]1CCCN1C(=O)[C@H](CCCNC(=N)N)NC(=O)[C@H](CC(C)C)NC(=O)[C@@H](Cc1cn(Cc2ccccc2)cn1)NC(=O)[C@H](Cc1ccc(O)cc1)NC(=O)[C@H](CO)NC(=O)[C@H](Cc1c[nH]c2ccccc12)NC(=O)[C@H](Cc1cnc[nH]1)NC(=O)[C@@H]1CCC(=O)N1` [Histrelin], the TEAD-luciferase reporter activity by setting is: (compound concentration: 200 nM) inactive: -0.887; (compound concentration: 2 uM) inactive: -0.919; (compound concentration: 10 uM) inactive: -1.91.

Turning to `CC(C)C[C@H](NC(=O)[C@@H](Cc1c[nH]c2ccccc12)NC(=O)[C@H](Cc1ccc(O)cc1)NC(=O)[C@H](CO)NC(=O)[C@H](Cc1c[nH]c2ccccc12)NC(=O)[C@H](Cc1c[nH]cn1)NC(=O)[C@@H]1CCC(=O)N1)C(=O)N[C@@H](CCCNC(=N)N)C(=O)N1CCC[C@H]1C(=O)NCC(N)=O`, the TEAD-luciferase reporter activity was inactive: 0.113 (compound concentration: 200 nM), inactive: 0.236 (compound concentration: 2 uM) and inactive: 1.38 (compound concentration: 10 uM).

Turning to `CC(C)OC(=O)N1CCC(Oc2ncnc3c2cnn3-c2ccc(S(C)(=O)=O)cc2F)CC1`, the TEAD-luciferase reporter activity (compound concentration: 200 nM) is inactive: 1.04, the TEAD-luciferase reporter activity (compound concentration: 2 uM) is inactive: -0.338 and the TEAD-luciferase reporter activity (compound concentration: 10 uM) is inactive: 0.806.

`Cc1ccc(C(=O)NS(=O)(=O)c2ccc(N)cc2)cc1C`: the TEAD-luciferase reporter activity (compound concentration: 200 nM) is inactive: 0.215, the TEAD-luciferase reporter activity (compound concentration: 2 uM) was inactive: -1.28 and the TEAD-luciferase reporter activity (compound concentration: 10 uM) was inactive: 1.41.

For `CCNC(=O)[C@@H]1CCCN1C(=O)[C@H](CCCNC(=N)N)NC(=O)[C@H](CC(C)C)NC(=O)[C@@H](Cc1c[nH]c2ccccc12)NC(=O)[C@H](Cc1ccc(O)cc1)NC(=O)[C@H](CO)NC(=O)[C@H](Cc1c[nH]c2ccccc12)NC(=O)[C@H](Cc1c[nH]cn1)NC(=O)[C@@H]1CCC(=O)N1` [Deslorelin], the TEAD-luciferase reporter activity was inactive: 0.142 (compound concentration: 200 nM), inactive: -0.258 (compound concentration: 2 uM) and inactive: -1.97 (compound concentration: 10 uM).
